The name of at least one read-out is uncertain.
Experiment: Effect on tissue-toxic hypoxia (survival time after KCN i.p.), life-prolonging rate (1)
Type: in vivo, male mice (dd-strain)
Settings: 100 mg/kg oral, 1 hour before KCN 10 mg/kg i.p.; untreated group 140 seconds

Structure (SMILES) | Life-prolonging rate (1): increase percent of survival time [%]
OCCNC(=S)Nc1cccnc1 [drawing 33] | 251
OCCNC(=S)Nc1cccnc1 [drawing 34] | 189

Source: patent publication US3992391A, “1,3-Disubstituted thiourea compounds and preparation thereof” (priority 1972, dated 1976)
